These are yes or no findings as the source states them, for the method shown. In cells and extracts the contact can be indirect. Some results given as binding are weak or reduced against the parent protein; the word gives no strength. Each block holds one binder with its values, some of them ahead of it.
Columns and labels:
Assay in all cases: pull-down; 5 μg biotin-labeled peptide with 50 μg lysate of VEGF-treated/untreated Sca1+-VPCs at 37°C for 1 hour, streptavidin-agarose beads, washed six times with lysis buffer containing 0.5% Triton X-100, eluate analysed by Western blot; only the target purified
[1] = target: T1, biotin-labeled 7Aa peptide (7-aa peptide with a serine substituted with an alanine, MHAPGAD) (mouse)
T1 sequence (peptide, biotin on the N-terminus): MHAPGAD

[2] = target: T2, biotin-labeled scrabbled 7-aa peptide 7S (MPHASGD)
T2 sequence (peptide, biotin on the N-terminus): MPHASGD

[3] = target: T3, biotin-labeled 7-aa peptide 7A (MHSPGAD) (mouse)
T3 sequence (peptide, biotin on the N-terminus): MHSPGAD

[4] = target: T4, biotin-labeled 7Ap peptide (MH[pSer]PGAD, synthetically phosphorylated serine residue) (mouse)
T4 sequence (peptide, phosphoserine (MH[pSer]PGAD); biotin on the N-terminus): MHSPGAD

- binding [1]: binds
B1: phosphorylated MEKK1 (phospho-MEKK1 Ser393) (enzyme, UniProt P53349 1-1493)
chain: MAAAAGDRASSSGFPGAAAASPEAGGGGGGGGALQGSGAPAAGAAGLLREPGSAGRERADWRRRQLRKVRSVELDQLPEQPLFLAAASPPCPSTSPSPEPADAAAGASRFQPAAGPPPPGAASRCGSHSAELAAARDSGARSPAGAEPPSAAAPSGREMENKETLKGLHKMEDRPEERMIREKLKATCMPAWKHEWLERRNRRGPVVVKPIPIKGDGSEVNNLAAEPQGEGQAGSAAPAPKGRRSPSPGSSPSGRSVKPESPGVRRKRVSPVPFQSGRITPPRRAPSPDGFSPYSPEETSRRVNKVMRARLYLLQQIGPNSFLIGGDSPDNKYRVFIGPQNCSCGRGAFCIHLLFVMLRVFQLEPSDPMLWRKTLKNFEVESLFQKYHSRRSSRIKAPSRNTIQKFVSRMSNSHTLSSSSTSTSSSENSIKDEEEQMCPICLLGMLDEESLTVCEDGCRNKLHHHCMSIWAEECRRNREPLICPLCRSKWRSHDFYSHELSSPVESPASLRAVQQPSSPQQPVAGSQRRNQESSFNLTHFGTQQIPSAYKDLAEPWIQVFGMELVGCLFSRNWNVREMALRRLSHDVSGALLLANGESTGNSGGGSGGSLSAGAASGSSQPSISGDVVEACCSVLSIVCADPVYKVYVAALKTLRAMLVYTPCHSLAERIKLQRLLRPVVDTILVKCADANSRTSQLSISTVLELCKGQAGELAVGREILKAGSIGVGGVDYVLSCILGNQAESNNWQELLGRLCLIDRLLLEFPAEFYPHIVSTDVSQAEPVEIRYKKLLSLLTFALQSIDNSHSMVGKLSRRIYLSSARMVTAVPAVFSKLVTMLNASGSTHFTRMRRRLMAIADEVEIAEVIQLGVEDTVDGHQDSLQAVAPTSCLENSSLEHTVHREKTGKGLSATRLSASSEDISDRLAGVSVGLPSSTTTEQPKPAVQTKGRPHSQCLNSSPLSHAQLMFPAPSAPCSSAPSVPDISKHRPQAFVPCKIPSASPQTQRKFSLQFQRNCSEHRDSDQLSPVFTQSRPPPSSNIHRPKPSRPVPGSTSKLGDATKSSMTLDLGSASRCDDSFGGGGNSGNAVIPSDETVFTPVEDKCRLDVNTELNSSIEDLLEASMPSSDTTVTFKSEVAVLSPEKAENDDTYKDDVNHNQKCKEKMEAEEEEALAIAMAMSASQDALPIVPQLQVENGEDIIIIQQDTPETLPGHTKAKQPYREDAEWLKGQQIGLGAFSSCYQAQDVGTGTLMAVKQVTYVRNTSSEQEEVVEALREEIRMMGHLNHPNIIRMLGATCEKSNYNLFIEWMAGGSVAHLLSKYGAFKESVVINYTEQLLRGLSYLHENQIIHRDVKGANLLIDSTGQRLRIADFGAAARLASKGTGAGEFQGQLLGTIAFMAPEVLRGQQYGRSCDVWSVGCAIIEMACAKPPWNAEKHSNHLALIFKIASATTAPSIPSHLSPGLRDVAVRCLELQPQDRPPSRELLKHPVFRTTW
modifications: phosphoserine at 393

- binding [2]: binds
- binding [1]: binds
B2: MEKK1 (mitogen-activated protein kinase MEKK1) (enzyme, UniProt P53349 1-1493)
chain: B1 chain

- binding [3]: binds
- binding [4]: binds
B3: 14-3-3 gamma protein (protein, UniProt P61982 1-247)
chain: MVDREQLVQKARLAEQAERYDDMAAAMKNVTELNEPLSNEERNLLSVAYKNVVGARRSSWRVISSIEQKTSADGNEKKIEMVRAYREKIEKELEAVCQDVLSLLDNYLIKNCSETQYESKVFYLKMKGDYYRYLAEVATGEKRATVVESSEKAYSEAHEISKEHMQPTHPIRLGLALNYSVFYYEIQNAPEQACHLAKTAFDDAIAELDTLNEDSYKDSTLIMQLLRDNLTLWTSDQQDDDGGEGNN
